Laboratory results taken from the supplement of paper PMC3334620.
Whole data set: some 33,000 sequences, median “E-score (-0.5 to 0.5)” near -0.0014, cut for the highest 2% near 0.25. The list shows a part of the results.

Biological target: T1, Cad1 (UniProt P24813)
T1 sequence: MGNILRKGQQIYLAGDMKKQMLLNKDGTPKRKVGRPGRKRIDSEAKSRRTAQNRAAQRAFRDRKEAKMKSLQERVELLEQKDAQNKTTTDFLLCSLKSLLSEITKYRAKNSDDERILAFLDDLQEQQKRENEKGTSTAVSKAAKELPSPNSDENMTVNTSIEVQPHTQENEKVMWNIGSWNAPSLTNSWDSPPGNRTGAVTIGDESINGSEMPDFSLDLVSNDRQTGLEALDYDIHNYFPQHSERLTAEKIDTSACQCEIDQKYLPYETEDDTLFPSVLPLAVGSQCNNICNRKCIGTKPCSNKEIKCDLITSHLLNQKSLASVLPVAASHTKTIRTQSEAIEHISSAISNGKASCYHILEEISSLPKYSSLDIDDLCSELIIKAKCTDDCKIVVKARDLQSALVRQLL
Assay: PBM E-score (8-mer binding enrichment) (E-score (-0.5 to 0.5)); higher = stronger / more preferred TF binding
Details: protein concentration: 100 nM; construct: GST-full length
Method: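 Universal 'all 10-mer' protein binding microarrays (Agilent AMADID 015681) probed with GST-tagged S. cerevisiae TFs (full-length or DBD) made by in vitro transcription/translation (PURExpress), about 100-200 nM. Bound TF was detected with fluorescent anti-GST. Each ungapped 8-mer (which stands for itself and its reverse complement) is scored by the PBM enrichment score (E-score), a modified Wilcoxon-Mann-Whitney statistic from -0.5 to +0.5, computed with the Universal PBM Analysis Suite. Scale: above 0.35 generally sequence-specific binding.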

Row | Sequence | PBM E-score
1 | CTTGCGCA | 0.093
2 | GTTACTCA | 0.182
3 | CCTTAACG | 0.0521
4 | AAATGCGG | 0.00807
5 | CACCACCA | 0.00941
6 | CGCTTACC | 0.168
7 | GCCACATA | 0.0201
8 | ACAATGTG | 0.0639
9 | GTTTGAAA | 0.113
10 | ACATGCGT | -0.0669
11 | ATGACGTC | 0.0734
12 | AATTGATG | 0.251
13 | AGTTCATG | 0.265
14 | CAATCAGC | 0.0656
15 | AACAGGTT | -0.0889
16 | CATGCGCC | 0.0597
17 | CCCAGCGC | -0.0801
18 | AATTGCAA | 0.131
19 | CGTCATGC | -0.0851
20 | ATCAATGG | -0.0702
21 | AACTGAGC | -0.203
22 | CCGATAGG | -0.00369

Row | Sequence | PBM E-score
23 | AGACGTGA | 0.178
24 | AGACATGG | -0.103
25 | GTTTGTGA | -0.0375
26 | ACGAACGA | 0.0753
27 | AGAATATC | 0.0721
28 | AGTTGATC | 0.0893
29 | ACTGCCAA | 0.179
30 | AGGAGAAT | 0.0193
31 | TTCGCAAA | 0.198
32 | AACCCCTG | -0.263
33 | GCAACGAA | 0.275
34 | ATCTAAAC | -0.058
35 | AAGGTCTC | -0.109
36 | TGAAACCA | -0.00097
37 | CGCCATGA | 0.159
38 | TACTGTAA | 0.0474
39 | ATTGTCTC | 0.0923
40 | ACGACTGA | -0.203
41 | AGTAGGCG | 0.0214
42 | CTATAGTA | 0.165
43 | CAACTCGA | 0.175
44 | CACGCGCA | 0.0196

Row | Sequence | PBM E-score
45 | AATAGCTG | 0.0055
46 | GGTGGGAA | -0.0423
47 | CCTCCGCC | -0.134
48 | ATTTCAAA | 0.137
49 | ACCCTCAA | -0.222
50 | GGGACCCA | -0.12
51 | AATTTCCG | 0.24
52 | ATATCAGG | 0.00611
53 | ATCCTTGA | 0.0576
54 | CGAGATGC | -0.0402
55 | CCTCCCAG | -0.346
56 | CACAACGC | -0.0182
57 | AGGCCGTG | 0.0557
58 | AAGTAATT | 0.2
59 | ATTATTTC | 0.2
60 | AGCATACA | 0.0414
61 | GGTAGCAC | -0.264
62 | GTTTCGGA | 0.0462
63 | GAATGCGA | 0.064
64 | CTATCCAG | -0.0759
65 | AGTAGCTA | 0.0332
66 | GAGAGAGC | -0.283

Row | Sequence | PBM E-score
67 | CGGCCGAA | 0.203
68 | CGGTGGAG | -0.0566
69 | CTCAAGCC | -0.0462
70 | GGGATCAA | 0.0428
71 | GACGGACA | 0.0727
72 | AGCCTTAT | 0.0233
73 | CATACCCA | -0.0323
74 | AGGGGACG | -0.189
75 | AAGCCCTT | -0.0922
76 | CTGGTTCA | 0.0573
77 | CATTTATA | 0.021
78 | CGACACTA | -0.0495
79 | AGAACAAC | -0.0123
80 | GCCGTGGA | -0.222
81 | AATTGAAG | -0.0835
82 | AGAAGCGC | 0.0594
83 | ACTAGGAG | -0.121
84 | TAGAAAGA | -0.1
85 | GACGCAGC | 0.0821
86 | AATAGGAG | -0.229
